# Experimental data published in patent publication US20240299265A1, “ETHER COMPOUNDS AS VOLATILES FOR THE TREATMENT OF AMINO ACID BASED SUBSTRATES, SUCH AS SKIN AND HAIR” (MOMENTIVE PERFORMANCE MATERIALS GMBH, priority 2021, published 2024).
# Test: Sensory performance: 5 panelists rub neat compound on the forearm
# Assay type: in vivo
# Details: neat compound rubbed on forearm; for Residue and greasiness: panelists who mentioned no residue and greasiness was observed: residue left after rub; for Spreading: panelists who mentioned enhanced spreading over Comparative Ex. 2: spreading during rub, versus Comparative Ex. 2 (SF1202); for Soft after feel: panelists who mentioned a softer after feel than Comparative Ex. 1: versus Comparative Ex. 1 (Cetiol Ultimate)
# Protocol: The sensory performance of materials was tested by 5 panelists by rubbing small amount of neat Example compounds or neat Comparative Example compounds on the forearm. The performance was measured for spreading during rub, soft after feel, and residue left after rub.
Compound,Residue and greasiness: panelists who mentioned no residue and greasiness was observed,Spreading: panelists who mentioned enhanced spreading over Comparative Ex. 2,Soft after feel: panelists who mentioned a softer after feel than Comparative Ex. 1
"CCCCCCCCCCOC(C)(C)C [Example 1, n-decyl-t-butyl ether]",3 out of 5,5 out of 5,5 out of 5
"CCCCCCCCCCCCOC(C)(C)C [Example 2, n-dodecyl-t-butyl ether]",3 out of 5,5 out of 5,5 out of 5

# No dose or concentration is given here for some results.
